Laboratory results: the supplement of paper PMC4604168 (melanoma cell lines)
Some of the results follow. Many values rest on one well or one pass, so single values are uncertain.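 Cells were imaged in 1,536-well plates, and nuclei stained with an antibody against cleaved PARP were counted against all DNA-stained nuclei to give the apoptosis fraction. Screening doses were chosen to leave most cells alive, and resting and induced cleaved-PARP levels differ strongly between cell lines.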

What follows are compounds tested on A101D (assay: cleaved PARP positive nuclei fraction relative to DMSO control; melanoma cells; higher = more apoptosis). Details: library dose: low library concentration; 72 h.
`C#Cc1cccc(Nc2ncnc3cc(OCCOC)c(OCCOC)cc23)c1` [erlotinib] + COc1ccc(Cl)c(Nc2nc3ccccc3nc2NS(=O)(=O)c2cccc(NC(=O)C(C)(C)N)c2)c1 [XL147] (first compound 0.8 µM, partner dose 0.8 µM) was tested, and the “cleaved PARP positive nuclei fraction” value was 155%. With `CO[C@@H]1[C@H](N(C)C(=O)c2ccccc2)C[C@H]2O[C@]1(C)n1c3ccccc3c3c4c(c5c6ccccc6n2c5c31)C(=O)NC4` [Midostaurin] + c1cc(-c2cnn3cc(-c4ccc(OCCN5CCCCC5)cc4)cnc23)ccn1 [Dorsomorphin] (first compound 0.08 µM, partner dose 0.4 µM) the “cleaved PARP positive nuclei fraction” value was 83.8%. With `NC(=O)Nc1cc(-c2cccc(F)c2)sc1C(=O)N[C@H]1CCCNC1` + N#Cc1c(O)c2c(-c3ccc(-c4ccccc4O)cc3)csc2[nH]c1=O [A769662] (first compound 0.02 µM, partner dose 2 µM) the “cleaved PARP positive nuclei fraction” value was 64.8%. For `C[C@]1(c2nc3c(C(N)=O)cccc3[nH]2)CCCN1` [Veliparib] + Cc1cc(N2CCOCC2)cc2[nH]c(-c3c(NC[C@@H](O)c4cccc(Cl)c4)cc[nH]c3=O)nc12 [BMS536924] (first compound 1.4 µM, partner dose 0.2 µM), the “cleaved PARP positive nuclei fraction” value was 45.3%. With `OCCn1cc(-c2cnc3nnn(Cc4ccc5ncccc5c4)c3n2)cn1` + CCN(CC)CCCCNc1ncc2cc(-c3cc(OC)cc(OC)c3)c(NC(=O)NC(C)(C)C)nc2n1 [PD173074] (first compound 1 µM, partner dose 0.1 µM) the “cleaved PARP positive nuclei fraction” value was 57.2%. `CC(=O)c1c(C)c2cnc(Nc3ccc(N4CCNCC4)cn3)nc2n(C2CCCC2)c1=O` [palbociclib] + O=S(=O)(c1ccccc1)N(CC(F)(F)F)c1ccc(C(O)(C(F)(F)F)C(F)(F)F)cc1 [T0901317] (first compound 0.04 µM, partner dose 1.4 µM) was tested, and the “cleaved PARP positive nuclei fraction” value was 19.8%. `Cc1nc(Nc2ncc(C(=O)Nc3c(C)cccc3Cl)s2)cc(N2CCN(CCO)CC2)n1` [dasatanib] + CN(C)S(=O)(=O)c1ccc2c(c1)/C(=C/c1cc3c([nH]1)CCCC3)C(=O)N2 [SU6656] (first compound 0.004 µM, partner dose 0.4 µM) was tested, and the “cleaved PARP positive nuclei fraction” value was 113%. With `CC(=O)c1c(C)c2cnc(Nc3ccc(N4CCNCC4)cn3)nc2n(C2CCCC2)c1=O` [palbociclib] + COc1cc(Nc2ncc(F)c(Nc3ccc4c(n3)NC(=O)C(C)(C)O4)n2)cc(OC)c1OC [Tamatinib] (first compound 0.04 µM, partner dose 0.4 µM) the “cleaved PARP positive nuclei fraction” value was 269%. For `CO[C@@H]1[C@H](N(C)C(=O)c2ccccc2)C[C@H]2O[C@]1(C)n1c3ccccc3c3c4c(c5c6ccccc6n2c5c31)C(=O)NC4` [Midostaurin] + CN(NC(=O)CC(=O)NN(C)C(=S)c1ccccc1)C(=S)c1ccccc1 [STA4783] (first compound 0.08 µM, partner dose 0.006 µM), the “cleaved PARP positive nuclei fraction” value was 283%. With `Cc1cc(N2CCOCC2)cc2[nH]c(-c3c(NC[C@@H](O)c4cccc(Cl)c4)cc[nH]c3=O)nc12` + CC(C)CCN1c2nc(Nc3cc(F)c(O)c(F)c3)ncc2N(C)C(=O)C1C [BID1870] (first compound 0.2 µM, partner dose 0.2 µM) the “cleaved PARP positive nuclei fraction” value was 143%. For `Nc1cccc2c1CN(C1CCC(=O)NC1=O)C2=O` (centres undefined) [lenalidomide] + COc1cc2c(Oc3ccc4[nH]c(C)cc4c3F)ncnc2cc1OCCCN1CCCC1 [cediranib] (first compound 1 µM, partner dose 0.4 µM), the “cleaved PARP positive nuclei fraction” value was 155%. For `CC(C)(C)c1cnc(CSc2cnc(NC(=O)C3CCNCC3)s2)o1` + O=S(=O)(c1ccccc1)N(CC(F)(F)F)c1ccc(C(O)(C(F)(F)F)C(F)(F)F)cc1 [T0901317] (first compound 0.01 µM, partner dose 1.4 µM), the “cleaved PARP positive nuclei fraction” value was 59.6%. `OCc1c[nH]c2ccccc12` [Indole-3-carbinol] + NCC(=O)Nc1ccc(-n2nc(C(F)(F)F)cc2-c2ccc3c(ccc4ccccc43)c2)cc1 [OSU03012] (first compound 0.8 µM, partner dose 1 µM) was tested, and the “cleaved PARP positive nuclei fraction” value was 34.2%. In the case of `C[C@]1(c2nc3c(C(N)=O)cccc3[nH]2)CCCN1` [Veliparib] + O=c1cc(-c2cccc3c2Sc2ccccc2S3)oc(N2CCOCC2)c1 [KU55933] (first compound 1.4 µM, partner dose 1 µM), the “cleaved PARP positive nuclei fraction” value is reported as 130%.
